For at least one entry, the source does not settle the construct or the ends of the probe.
Target: TDG (recombinant murine TDG) (Mus musculus) (UniProt P56581)
Assay: competition with a labelled probe
Conditions: Results: higher affinity than lncRNA, Methods call it non-competitor homoduplex; BER buffer: 50 mM HEPES pH 8.0, 70 mM KCl, 0.5 mg/mL BSA, 7 mM MgCl2, 1 mM DTT, RNase inhibitor; RT, 15 min; recombinant protein; letters put together from the description

Chains of the proteins cited; added tags and fusions are not shown. Lines headed by an entry give the natural chain unless they say otherwise; changes in a name come on top.
UniProt P56581: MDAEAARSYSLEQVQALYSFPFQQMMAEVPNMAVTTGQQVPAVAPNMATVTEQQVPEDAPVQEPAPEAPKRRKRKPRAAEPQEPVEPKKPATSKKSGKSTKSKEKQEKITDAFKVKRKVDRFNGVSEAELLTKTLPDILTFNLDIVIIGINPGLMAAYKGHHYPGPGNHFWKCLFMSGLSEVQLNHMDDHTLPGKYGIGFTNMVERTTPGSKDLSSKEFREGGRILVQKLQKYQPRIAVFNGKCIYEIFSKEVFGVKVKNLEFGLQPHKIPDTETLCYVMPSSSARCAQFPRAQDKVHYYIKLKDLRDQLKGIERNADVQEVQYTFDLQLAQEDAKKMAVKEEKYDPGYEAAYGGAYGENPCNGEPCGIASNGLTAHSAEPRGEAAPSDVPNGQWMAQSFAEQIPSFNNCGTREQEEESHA

“TAGACATTGCCCTCGAGGTACCATGGATCCGATGTCGACCTCAAACCTAGACGAATTCCG (double strand) [60 bp homoduplex DNA (G·C, unlabeled competitor)]”: binds.
